Measured values: paper PMC8771856

Chains of the proteins cited; added tags and fusions are not shown.
UniProt P09874: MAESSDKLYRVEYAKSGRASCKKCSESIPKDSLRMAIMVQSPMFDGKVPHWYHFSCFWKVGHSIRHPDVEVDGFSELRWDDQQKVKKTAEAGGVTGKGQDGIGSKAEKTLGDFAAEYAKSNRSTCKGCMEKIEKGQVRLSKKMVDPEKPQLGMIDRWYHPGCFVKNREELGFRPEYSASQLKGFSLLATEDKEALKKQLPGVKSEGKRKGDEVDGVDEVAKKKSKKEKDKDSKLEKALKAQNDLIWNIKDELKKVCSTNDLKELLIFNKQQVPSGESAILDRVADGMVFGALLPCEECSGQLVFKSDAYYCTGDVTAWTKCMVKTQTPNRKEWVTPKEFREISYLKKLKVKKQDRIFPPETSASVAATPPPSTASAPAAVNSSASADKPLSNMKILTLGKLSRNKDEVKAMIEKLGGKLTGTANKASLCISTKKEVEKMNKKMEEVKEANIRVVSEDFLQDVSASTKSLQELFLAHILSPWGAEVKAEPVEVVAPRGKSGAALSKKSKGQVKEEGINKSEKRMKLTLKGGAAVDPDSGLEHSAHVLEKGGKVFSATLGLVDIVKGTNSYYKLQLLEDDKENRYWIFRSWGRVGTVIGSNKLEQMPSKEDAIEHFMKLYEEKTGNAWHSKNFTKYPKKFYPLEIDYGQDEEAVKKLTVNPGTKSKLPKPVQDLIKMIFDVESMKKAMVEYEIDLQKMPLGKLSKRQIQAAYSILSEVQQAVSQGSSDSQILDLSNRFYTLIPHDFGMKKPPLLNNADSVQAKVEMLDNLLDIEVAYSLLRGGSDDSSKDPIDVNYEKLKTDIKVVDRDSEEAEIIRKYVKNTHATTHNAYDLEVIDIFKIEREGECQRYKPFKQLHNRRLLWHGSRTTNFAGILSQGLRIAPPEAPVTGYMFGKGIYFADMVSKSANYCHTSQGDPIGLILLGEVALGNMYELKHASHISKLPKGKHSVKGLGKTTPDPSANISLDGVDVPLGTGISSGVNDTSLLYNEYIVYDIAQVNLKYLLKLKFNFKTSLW
UniProt P15311: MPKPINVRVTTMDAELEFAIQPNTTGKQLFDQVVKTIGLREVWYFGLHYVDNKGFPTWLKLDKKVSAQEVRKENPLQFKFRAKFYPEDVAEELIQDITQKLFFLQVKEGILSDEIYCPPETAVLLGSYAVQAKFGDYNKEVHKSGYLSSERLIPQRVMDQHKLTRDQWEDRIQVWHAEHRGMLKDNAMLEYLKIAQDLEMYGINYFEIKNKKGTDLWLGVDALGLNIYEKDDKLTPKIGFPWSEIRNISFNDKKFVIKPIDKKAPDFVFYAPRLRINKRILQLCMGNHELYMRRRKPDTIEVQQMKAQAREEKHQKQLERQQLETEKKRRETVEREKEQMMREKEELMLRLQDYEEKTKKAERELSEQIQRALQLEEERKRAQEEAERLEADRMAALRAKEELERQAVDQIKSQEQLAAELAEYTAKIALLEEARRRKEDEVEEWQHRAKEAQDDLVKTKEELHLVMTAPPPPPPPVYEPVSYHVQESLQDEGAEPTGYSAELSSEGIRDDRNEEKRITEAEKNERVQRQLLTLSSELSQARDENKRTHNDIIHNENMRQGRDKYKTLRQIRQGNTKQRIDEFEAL

Legend:
[1] = molecular target: Poly (ADP-ribose) polymerase 1 (PARP1), endogenous in 143B cells (human (endogenous in 143B)) (UniProt P09874); assay: affinity purification with mass spectrometry; co-IP from 143B lysate with anti-PARP1 antibody (IgG as control), protein A/G magnetic beads; SDS-PAGE, silver staining, band at about 80 kDa analysed by mass spectrometry
[2] = molecular target: Human recombinant his-tagged PARP1 protein (human) (UniProt P09874); assay: affinity purification with mass spectrometry; his-tagged PARP1 held on Ni-NTA magnetic agarose beads, incubated overnight in the cold room with whole proteins of 143B cells; SDS-PAGE, silver staining, band at about 80 kDa analysed by mass spectrometry; his-tagged HSA as control; only the target purified

Ezrin, endogenous in 143B cells (from UniProt P15311 1-586)
binding [1]: binds
binding [2]: binds

Results are given in words; binding and its absence hold for the method and conditions named. Binding seen in cells or lysates may run through a third protein. A yes stands for co-enrichment or nearness to the bait. Other partners may have been found.
